Reference: paper PMC8880913
Results are given in words; binding and its absence hold for the method and conditions named. Binding seen in cells or lysates may run through a third protein. Some results given as binding are weak or reduced against the parent protein; the word gives no strength. For part of these data: Where a sequence is shown, tags or fusion partners need not be part of it.

Protein sequences, listed by entry. Tags and fused reporters are not part of them.
UniProt P10238: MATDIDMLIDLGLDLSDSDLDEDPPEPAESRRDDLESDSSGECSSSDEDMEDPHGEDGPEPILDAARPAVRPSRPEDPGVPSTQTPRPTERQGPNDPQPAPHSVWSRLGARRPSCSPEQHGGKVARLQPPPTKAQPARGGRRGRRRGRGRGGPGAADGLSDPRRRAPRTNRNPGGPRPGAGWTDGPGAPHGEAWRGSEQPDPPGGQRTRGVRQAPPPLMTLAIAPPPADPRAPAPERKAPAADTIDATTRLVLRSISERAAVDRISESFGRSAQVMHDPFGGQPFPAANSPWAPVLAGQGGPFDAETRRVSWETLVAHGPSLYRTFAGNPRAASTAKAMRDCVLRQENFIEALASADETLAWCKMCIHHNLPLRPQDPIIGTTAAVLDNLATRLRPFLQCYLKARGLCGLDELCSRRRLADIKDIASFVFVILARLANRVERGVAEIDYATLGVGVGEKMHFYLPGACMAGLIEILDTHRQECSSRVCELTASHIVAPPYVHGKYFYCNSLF

Columns and labels:
[1] = target: T1, Flag-tagged MOV10 (Moloney leukemia virus 10 protein) (human) (UniProt Q9HCE1); test: co-IP; anti-Flag immunoprecipitation of Flag-tagged MOV10 or its truncated mutants from transfected Neuro-2a cells infected with HSV-1 (MOI = 5), harvested at 12 hpi; western blot
T1 sequence: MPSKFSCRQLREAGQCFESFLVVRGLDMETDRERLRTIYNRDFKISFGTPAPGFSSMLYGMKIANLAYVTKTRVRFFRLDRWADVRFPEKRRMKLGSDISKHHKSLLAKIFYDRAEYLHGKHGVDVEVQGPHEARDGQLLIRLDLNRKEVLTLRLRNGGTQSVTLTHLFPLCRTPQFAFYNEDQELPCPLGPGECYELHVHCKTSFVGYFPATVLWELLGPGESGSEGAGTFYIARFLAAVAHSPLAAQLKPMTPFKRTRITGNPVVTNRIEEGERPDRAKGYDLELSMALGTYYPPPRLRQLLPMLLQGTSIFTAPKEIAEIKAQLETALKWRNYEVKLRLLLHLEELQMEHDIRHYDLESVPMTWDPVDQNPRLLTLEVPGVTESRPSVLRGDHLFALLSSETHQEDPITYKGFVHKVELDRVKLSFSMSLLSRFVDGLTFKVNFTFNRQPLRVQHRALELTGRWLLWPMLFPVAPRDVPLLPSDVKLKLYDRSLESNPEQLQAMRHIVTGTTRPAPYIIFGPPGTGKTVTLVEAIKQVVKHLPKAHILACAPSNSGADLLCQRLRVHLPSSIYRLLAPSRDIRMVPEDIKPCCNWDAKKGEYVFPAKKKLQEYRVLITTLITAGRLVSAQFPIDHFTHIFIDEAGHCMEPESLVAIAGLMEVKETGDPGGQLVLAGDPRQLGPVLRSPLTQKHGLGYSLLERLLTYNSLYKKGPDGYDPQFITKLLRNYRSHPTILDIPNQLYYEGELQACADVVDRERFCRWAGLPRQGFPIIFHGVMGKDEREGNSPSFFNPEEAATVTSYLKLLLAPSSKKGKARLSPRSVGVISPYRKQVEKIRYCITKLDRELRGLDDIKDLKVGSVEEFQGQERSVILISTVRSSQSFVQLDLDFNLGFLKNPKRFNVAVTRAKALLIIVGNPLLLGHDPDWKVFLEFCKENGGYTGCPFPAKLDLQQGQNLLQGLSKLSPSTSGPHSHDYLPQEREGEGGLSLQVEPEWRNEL

[2] = target: Flag-tagged ICP27 (transfected) (HSV-1) (UniProt P10238); test: co-IP; anti-Flag immunoprecipitation of ICP27 or its truncated mutants from transfected Neuro-2a cells harvested at 24 h post-transfection; western blot for endogenous MOV10
[3] = target: T2, Flag-tagged IKKε (IκB kinase ε) (UniProt Q14164); test: co-IP; anti-Flag immunoprecipitation of Flag-IKKε from Neuro-2a cells co-transfected with untagged MOV10, infected with HSV-1 (MOI = 5), harvested at 12 hpi; western blot
T2 sequence: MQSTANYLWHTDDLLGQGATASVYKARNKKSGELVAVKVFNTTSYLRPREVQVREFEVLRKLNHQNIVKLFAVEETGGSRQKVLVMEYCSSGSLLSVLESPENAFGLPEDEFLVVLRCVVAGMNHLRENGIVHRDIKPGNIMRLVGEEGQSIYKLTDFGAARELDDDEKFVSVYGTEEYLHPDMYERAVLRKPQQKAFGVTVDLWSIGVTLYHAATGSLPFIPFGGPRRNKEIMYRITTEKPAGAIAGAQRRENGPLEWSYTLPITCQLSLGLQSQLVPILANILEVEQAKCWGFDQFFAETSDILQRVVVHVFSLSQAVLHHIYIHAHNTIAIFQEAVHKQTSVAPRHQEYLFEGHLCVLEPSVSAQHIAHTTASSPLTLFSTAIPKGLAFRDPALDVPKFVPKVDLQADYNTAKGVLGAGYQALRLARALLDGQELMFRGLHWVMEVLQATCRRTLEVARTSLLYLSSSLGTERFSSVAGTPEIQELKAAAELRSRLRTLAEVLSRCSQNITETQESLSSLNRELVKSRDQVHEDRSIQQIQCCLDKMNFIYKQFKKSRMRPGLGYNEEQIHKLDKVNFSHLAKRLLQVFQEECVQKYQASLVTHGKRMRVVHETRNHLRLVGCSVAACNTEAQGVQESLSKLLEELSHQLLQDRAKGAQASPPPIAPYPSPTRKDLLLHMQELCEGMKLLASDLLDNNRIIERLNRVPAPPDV

**Q.** For “HSV-1 ICP27 expressed during HSV-1 infection (from UniProt P10238 1-512)”, which binding [1] is on record?
**A.** binds

B1: endogenous MOV10 of Neuro-2a cells (protein, UniProt P23249 1-1004)
chain: MPSKFSCRKLRETGQRFESFLAERGLDLETDRERLRTIYNHDFKPSYGTPAPGFSSMLYGMKIANLAFVTKTRVRFFKLDRWADVQLPEKRRIKPGSNISKQHRSLLARIFHDRAEYLHGKHGVDVEVQGPHEARDGQLLIHLDLNRKEVLTLRLRNGGSKPVTLTHLFPLCWTPQFVFYHGEQDLPCPLGPGESYELHIYCKTSIVGYFPATVLWELLGPGESGAEGAETFYIARFLAAVAHSPLAAQLKPTTPFKRPPRLTRNSVLTNRIEEGERPDRAKGYELELSLALGTYYPPILLRQLLPTLLQGPSIFTAPKEVAEIKAQLETTLKSRNYEVKLRLLLHLEELQMEHDIRHYDLDSVPMTWDPVDQNPRLLTLEVPGVAESRPSVLRGDHLFALLSSETQQDDPVTYKGFVHKVELDRVKLSFSTSLLSRFVDGLTFKVNFTFNRQPLRVQHRALELTGRWVLWPMLFPVASRGVSLLPSDVKFKLYDRSLESNPEQLQAMKHIVRGTTRPAPYIIFGPPGTGKTVTLVEAIKQVVKHLPKAHILACAPSNSGADLLCQRLRVHLPSSIYRLLAPSRDIRMVPEDIKTCCNWDAKKGEYVYPAKKHLQQYRVLITTLITASRLVSAQFPIDHFTHIFIDEAGHCMEPESLVAIAGLMDVKETGNPGGQLVLAGDPRQLGPVLRSPLALKHGLGYSLLERLLAYNSLYKKGPNGYDPQFITKLLRNYRSHPTILDIPNQLYYDGELQACADVVDRERFCRWEGLPQQGFPIIFHGVMGKDEREGNSPSFFNPEEAATVTSYLKQLLAPSSKKGKARLSPRNVGVISPYRKQVEKIRYCITKLDRELRGLDDIKDLKVGSVEEFQGQERSVILISTVRSSQSFVQLDLDFNLGFLKNPKRFNVAVTRAKALLIVVGNPLLLGHDPDWKTFLEFCKENGGYTGCPFPAKLDLQQGQDLLQGLSKLSPSTSGPRRHQNLPQEREGEGGLPLQVEPEWRNEL
**Q.** For B1, which binding [2] is on record?
**A.** binds

B2: untagged MOV10 (protein, UniProt Q9HCE1 1-1003)
chain: T1 sequence
**Q.** Which binding [3] does the source give for B2 here?
**A.** binds
